The source of these data is the supplement of paper PMC12067093, “Discovery and optimisation of a covalent ligand for TRIM25 and its application to targeted protein ubiquitination” (Chemical Science, 2025).

Chains of the proteins cited; added tags and fusions are not shown. Lines headed by an entry give the natural chain unless they say otherwise; changes in a name come on top.
UniProt Q6P2E9: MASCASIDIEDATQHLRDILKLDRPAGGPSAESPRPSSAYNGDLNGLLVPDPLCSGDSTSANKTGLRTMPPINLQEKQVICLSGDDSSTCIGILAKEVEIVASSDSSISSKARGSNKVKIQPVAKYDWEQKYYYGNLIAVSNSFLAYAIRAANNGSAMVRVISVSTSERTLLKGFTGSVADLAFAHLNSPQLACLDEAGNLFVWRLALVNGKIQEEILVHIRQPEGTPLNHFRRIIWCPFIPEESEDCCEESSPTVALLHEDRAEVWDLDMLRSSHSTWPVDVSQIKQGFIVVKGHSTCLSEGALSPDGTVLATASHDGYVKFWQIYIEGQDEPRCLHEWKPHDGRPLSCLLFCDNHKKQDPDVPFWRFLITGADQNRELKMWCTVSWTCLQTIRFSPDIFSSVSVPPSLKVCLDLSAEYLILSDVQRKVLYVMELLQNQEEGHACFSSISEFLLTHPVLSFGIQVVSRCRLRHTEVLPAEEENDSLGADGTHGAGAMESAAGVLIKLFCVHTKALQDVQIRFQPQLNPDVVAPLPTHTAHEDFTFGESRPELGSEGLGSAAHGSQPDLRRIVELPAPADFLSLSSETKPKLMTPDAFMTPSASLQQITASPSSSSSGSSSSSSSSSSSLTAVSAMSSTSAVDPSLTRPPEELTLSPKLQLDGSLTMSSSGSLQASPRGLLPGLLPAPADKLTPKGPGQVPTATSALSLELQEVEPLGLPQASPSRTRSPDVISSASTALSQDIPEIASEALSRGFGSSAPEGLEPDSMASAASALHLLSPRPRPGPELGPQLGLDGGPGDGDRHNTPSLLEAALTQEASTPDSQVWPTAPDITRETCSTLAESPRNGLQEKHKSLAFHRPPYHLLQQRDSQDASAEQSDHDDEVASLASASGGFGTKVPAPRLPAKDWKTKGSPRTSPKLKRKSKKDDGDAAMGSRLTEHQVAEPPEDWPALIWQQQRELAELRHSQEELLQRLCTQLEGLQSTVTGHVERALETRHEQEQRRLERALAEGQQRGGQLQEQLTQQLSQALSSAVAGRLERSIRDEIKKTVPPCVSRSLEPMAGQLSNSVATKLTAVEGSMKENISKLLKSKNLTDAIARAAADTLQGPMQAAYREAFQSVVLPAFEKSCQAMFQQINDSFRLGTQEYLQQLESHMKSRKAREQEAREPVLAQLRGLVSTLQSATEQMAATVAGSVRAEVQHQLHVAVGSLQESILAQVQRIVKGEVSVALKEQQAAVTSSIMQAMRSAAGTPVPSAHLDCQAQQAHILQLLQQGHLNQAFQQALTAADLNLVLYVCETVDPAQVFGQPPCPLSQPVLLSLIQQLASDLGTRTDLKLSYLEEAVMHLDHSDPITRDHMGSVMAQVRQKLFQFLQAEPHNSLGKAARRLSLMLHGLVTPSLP
UniProt Q92611: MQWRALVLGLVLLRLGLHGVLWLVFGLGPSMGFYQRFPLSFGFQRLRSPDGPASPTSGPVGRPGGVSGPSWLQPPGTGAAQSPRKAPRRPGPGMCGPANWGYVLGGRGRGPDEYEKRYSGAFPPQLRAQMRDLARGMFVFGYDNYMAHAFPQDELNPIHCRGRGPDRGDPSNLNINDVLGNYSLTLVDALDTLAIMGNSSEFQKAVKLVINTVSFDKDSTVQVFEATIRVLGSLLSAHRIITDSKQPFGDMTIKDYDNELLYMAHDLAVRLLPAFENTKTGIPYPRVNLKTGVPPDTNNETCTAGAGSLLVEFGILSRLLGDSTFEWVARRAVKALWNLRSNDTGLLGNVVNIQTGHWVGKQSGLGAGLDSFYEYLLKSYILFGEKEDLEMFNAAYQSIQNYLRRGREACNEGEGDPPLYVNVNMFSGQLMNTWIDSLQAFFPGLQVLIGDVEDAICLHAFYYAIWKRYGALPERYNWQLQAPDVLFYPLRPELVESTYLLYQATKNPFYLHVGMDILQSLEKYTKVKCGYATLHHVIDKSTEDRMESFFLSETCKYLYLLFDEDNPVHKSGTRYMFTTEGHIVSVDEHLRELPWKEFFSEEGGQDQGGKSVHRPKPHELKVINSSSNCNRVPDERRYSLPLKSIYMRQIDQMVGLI
UniProt Q14152, whole entry, looked up: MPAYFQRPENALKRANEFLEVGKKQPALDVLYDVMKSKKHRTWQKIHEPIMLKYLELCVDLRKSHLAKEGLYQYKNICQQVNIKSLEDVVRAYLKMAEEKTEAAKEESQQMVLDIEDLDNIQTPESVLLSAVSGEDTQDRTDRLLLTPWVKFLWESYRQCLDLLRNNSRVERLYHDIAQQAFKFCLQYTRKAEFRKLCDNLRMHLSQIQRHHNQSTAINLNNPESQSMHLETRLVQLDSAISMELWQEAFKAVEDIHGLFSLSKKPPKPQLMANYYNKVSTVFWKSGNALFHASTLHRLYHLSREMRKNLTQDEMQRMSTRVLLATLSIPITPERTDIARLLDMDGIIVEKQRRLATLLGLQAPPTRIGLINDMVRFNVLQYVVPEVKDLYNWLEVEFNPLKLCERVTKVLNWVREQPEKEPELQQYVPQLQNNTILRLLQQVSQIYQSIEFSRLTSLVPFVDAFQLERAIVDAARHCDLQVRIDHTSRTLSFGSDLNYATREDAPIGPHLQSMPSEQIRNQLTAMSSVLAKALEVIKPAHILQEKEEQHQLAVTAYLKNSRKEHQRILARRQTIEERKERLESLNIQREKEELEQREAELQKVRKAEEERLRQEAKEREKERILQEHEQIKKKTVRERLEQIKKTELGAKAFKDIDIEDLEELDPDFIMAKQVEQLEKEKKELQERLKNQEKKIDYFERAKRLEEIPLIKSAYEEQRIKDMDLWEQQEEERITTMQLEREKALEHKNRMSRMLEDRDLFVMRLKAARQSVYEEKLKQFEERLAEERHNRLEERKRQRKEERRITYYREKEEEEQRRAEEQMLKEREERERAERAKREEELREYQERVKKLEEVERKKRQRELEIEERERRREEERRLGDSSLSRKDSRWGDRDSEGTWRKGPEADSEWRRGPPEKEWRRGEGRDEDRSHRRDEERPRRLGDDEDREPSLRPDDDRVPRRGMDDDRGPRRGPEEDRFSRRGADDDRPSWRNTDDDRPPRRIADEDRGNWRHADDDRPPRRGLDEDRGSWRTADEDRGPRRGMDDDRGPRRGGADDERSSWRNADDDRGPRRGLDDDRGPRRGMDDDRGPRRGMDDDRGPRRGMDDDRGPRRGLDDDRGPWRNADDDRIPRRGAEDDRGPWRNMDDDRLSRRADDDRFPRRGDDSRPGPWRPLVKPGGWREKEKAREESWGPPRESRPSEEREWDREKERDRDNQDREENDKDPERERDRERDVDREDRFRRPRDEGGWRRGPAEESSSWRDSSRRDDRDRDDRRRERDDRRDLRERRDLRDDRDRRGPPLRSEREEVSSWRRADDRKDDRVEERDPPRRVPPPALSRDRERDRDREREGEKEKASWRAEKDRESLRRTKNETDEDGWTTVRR
UniProt O75530, whole entry, looked up: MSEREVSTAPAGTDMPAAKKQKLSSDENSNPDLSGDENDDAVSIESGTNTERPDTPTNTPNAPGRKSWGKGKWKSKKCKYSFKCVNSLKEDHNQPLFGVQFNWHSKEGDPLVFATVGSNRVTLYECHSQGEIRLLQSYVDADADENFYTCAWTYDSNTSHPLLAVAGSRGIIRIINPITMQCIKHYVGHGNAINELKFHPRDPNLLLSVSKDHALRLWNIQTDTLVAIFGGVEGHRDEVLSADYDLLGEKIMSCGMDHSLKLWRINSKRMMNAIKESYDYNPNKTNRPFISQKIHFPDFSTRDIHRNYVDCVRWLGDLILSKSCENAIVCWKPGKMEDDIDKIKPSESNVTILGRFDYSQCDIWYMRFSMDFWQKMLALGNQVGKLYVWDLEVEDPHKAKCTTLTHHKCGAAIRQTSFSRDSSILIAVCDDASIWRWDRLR
UniProt Q9GZT9: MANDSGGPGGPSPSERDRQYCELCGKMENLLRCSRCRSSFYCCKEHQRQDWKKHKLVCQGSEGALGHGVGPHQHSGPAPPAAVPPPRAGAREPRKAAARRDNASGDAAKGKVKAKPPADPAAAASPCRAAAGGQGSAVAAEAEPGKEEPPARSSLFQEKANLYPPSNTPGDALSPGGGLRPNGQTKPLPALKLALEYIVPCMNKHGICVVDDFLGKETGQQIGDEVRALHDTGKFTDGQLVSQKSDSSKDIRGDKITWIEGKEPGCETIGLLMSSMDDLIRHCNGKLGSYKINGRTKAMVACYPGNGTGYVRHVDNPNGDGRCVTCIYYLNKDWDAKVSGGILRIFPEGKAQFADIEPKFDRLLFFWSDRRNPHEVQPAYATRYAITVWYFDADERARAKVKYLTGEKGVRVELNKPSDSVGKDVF
UniProt Q96KQ7: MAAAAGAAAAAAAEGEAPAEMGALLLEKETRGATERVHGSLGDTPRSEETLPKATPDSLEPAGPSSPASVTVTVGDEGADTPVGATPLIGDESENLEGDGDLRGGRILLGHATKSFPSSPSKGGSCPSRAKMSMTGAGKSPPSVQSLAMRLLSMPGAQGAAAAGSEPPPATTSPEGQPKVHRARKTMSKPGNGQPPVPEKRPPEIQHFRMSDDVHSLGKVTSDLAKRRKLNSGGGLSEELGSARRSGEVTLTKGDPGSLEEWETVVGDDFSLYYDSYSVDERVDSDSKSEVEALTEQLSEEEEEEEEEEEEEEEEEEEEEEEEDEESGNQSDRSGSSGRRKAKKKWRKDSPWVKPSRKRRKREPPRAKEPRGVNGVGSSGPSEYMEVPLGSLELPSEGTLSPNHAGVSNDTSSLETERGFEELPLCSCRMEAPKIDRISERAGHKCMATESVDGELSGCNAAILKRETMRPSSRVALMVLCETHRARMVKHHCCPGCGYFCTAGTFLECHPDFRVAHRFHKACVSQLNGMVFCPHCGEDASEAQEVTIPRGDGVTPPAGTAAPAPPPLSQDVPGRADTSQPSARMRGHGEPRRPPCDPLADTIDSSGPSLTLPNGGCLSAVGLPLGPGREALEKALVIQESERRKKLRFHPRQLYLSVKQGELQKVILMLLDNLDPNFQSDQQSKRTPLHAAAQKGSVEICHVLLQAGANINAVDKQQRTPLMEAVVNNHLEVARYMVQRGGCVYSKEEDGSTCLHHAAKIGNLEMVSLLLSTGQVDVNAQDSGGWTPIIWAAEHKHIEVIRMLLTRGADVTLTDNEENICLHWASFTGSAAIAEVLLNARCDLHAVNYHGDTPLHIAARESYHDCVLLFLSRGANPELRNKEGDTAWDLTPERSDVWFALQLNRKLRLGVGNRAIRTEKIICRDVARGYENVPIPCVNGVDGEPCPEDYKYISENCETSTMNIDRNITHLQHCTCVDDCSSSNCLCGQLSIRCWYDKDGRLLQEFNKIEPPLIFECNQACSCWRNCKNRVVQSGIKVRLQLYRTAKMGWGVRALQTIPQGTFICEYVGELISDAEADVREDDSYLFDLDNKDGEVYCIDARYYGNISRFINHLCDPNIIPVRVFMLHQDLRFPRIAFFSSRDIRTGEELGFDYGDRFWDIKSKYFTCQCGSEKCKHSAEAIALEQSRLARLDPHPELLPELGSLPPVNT
UniProt Q96F86: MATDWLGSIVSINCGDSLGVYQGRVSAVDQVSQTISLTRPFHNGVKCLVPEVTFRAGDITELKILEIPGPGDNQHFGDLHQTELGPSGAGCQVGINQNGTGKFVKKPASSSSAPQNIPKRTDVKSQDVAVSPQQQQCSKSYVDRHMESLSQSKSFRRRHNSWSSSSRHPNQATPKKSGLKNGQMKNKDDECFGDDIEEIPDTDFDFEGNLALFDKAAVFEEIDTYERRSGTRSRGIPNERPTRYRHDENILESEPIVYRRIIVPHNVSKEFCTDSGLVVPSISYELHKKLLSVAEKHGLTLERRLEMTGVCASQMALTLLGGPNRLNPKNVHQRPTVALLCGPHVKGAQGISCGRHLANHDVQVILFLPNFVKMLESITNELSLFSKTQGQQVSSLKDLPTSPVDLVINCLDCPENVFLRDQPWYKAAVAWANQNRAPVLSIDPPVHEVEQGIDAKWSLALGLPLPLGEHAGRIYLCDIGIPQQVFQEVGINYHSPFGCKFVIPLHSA
UniProt Q9H223: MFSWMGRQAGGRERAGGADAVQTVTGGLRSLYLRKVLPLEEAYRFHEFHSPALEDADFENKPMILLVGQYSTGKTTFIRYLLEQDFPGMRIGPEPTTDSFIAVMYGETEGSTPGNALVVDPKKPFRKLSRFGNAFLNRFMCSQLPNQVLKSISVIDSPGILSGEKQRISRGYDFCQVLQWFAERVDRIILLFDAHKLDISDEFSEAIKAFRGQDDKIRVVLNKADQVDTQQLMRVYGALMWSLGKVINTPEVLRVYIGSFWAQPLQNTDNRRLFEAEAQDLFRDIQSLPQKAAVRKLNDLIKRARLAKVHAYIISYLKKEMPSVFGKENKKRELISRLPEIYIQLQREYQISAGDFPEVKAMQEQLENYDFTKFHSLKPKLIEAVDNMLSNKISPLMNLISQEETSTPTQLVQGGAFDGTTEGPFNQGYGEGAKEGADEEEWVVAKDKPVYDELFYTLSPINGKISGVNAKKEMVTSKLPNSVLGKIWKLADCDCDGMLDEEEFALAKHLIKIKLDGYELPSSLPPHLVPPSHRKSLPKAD

This is one part of the list.

Compound in this assay: CC1Cc2ccccc2N1C(=O)C1CCCN(C1)C(=O)CCl (mixture of isomers) [TRIM25 ligand 11 (diastereomer mixture)]
In words: probe-labelled cysteine peptide fold change vs DMSO (competition) (log2 fold change); higher = less target engagement (more negative = stronger competition). The note with it: THP-1, incubation time: 4 h.
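Also: competitive chemoproteomic profiling in live THP-1 cells with an iodoacetamide desthiobiotin (IA-DTB) probe, comparing probe-labelled peptide intensities in compound-treated cells against DMSO-treated controls.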

As to “EFL1_Q7Z2Z2_474_LAAAQGQAPLEPTQDGSAIETCPK (UniProt Q7Z2Z2)”, the “probe-labelled cysteine peptide fold change” value runs as follows: (10 µM) 0.0723; (50 µM) -0.0745.

As to “EDC4_Q6P2E9_1130_SCQAMFQQINDSFR (UniProt Q6P2E9)”, the “probe-labelled cysteine peptide fold change” value is 0.091 (10 µM) and 0.0884 (50 µM).

For “EEF1A1_P68104_363_NDPPMEAAGFTAQVIILNHPGQISAGYAPVLDCHTAHIACK (UniProt P68104)”, the “probe-labelled cysteine peptide fold change” value was -0.00529 (10 µM) and -0.121 (50 µM).

As to “ECM1_Q16610_269_FSCFQEEAPQPHYQLR (UniProt Q16610)”, the “probe-labelled cysteine peptide fold change” value (10 µM) is 0.855 and the “probe-labelled cysteine peptide fold change” value (50 µM) was determined as 0.858.

Turning to “EEF1A1_P68104_363_GNVAGDSKNDPPMEAAGFTAQVIILNHPGQISAGYAPVLDCHTAHIACK (UniProt P68104)”, the “probe-labelled cysteine peptide fold change” value is, setting by setting: (10 µM) -0.319; (50 µM) -0.432.

Take “EFEMP1_Q12805_190_ADQVCINLR (UniProt Q12805)”: the “probe-labelled cysteine peptide fold change” value (10 µM) stood at 0.363 and the “probe-labelled cysteine peptide fold change” value (50 µM) was 0.364.

On to “EFTUD2_Q15029_468+476_IEHTYTGGVDSDLGEAMSDCDPDGPLMCHTTK (UniProt Q15029)”, for which the “probe-labelled cysteine peptide fold change” value was -0.117 (10 µM) and -0.451 (50 µM).

Consider “EIF2B3_Q9NR50_424_DCLIGSGQR (UniProt Q9NR50)”, for which the “probe-labelled cysteine peptide fold change” value was -0.00481 (10 µM) and -0.0485 (50 µM).

As to “EDEM1_Q92611_95_RPGPGMCGPANWGYVLGGR (UniProt Q92611)”, the “probe-labelled cysteine peptide fold change” value reads like this: (10 µM) -0.117; (50 µM) -0.186.

As for “EIF3A_Q14152_198_LCDNLR (UniProt Q14152)”, the “probe-labelled cysteine peptide fold change” value reads like this: (10 µM) 0.0878; (50 µM) 0.126.

Consider “EED_O75530_182_IINPITMQCIK (UniProt O75530)”, for which the “probe-labelled cysteine peptide fold change” value reads like this: (10 µM) -0.11; (50 µM) -0.0595.

For “ECT2_Q9H8V3_157_VIGPPVVLNCSQK (UniProt Q9H8V3)”, the “probe-labelled cysteine peptide fold change” value is -0.183 (10 µM) and -0.0265 (50 µM).

Turning to “EEF1A1_P68104_411_FLKSGDAAIVDMVPGKPMCVESFSDYPPLGR (UniProt P68104)”, the “probe-labelled cysteine peptide fold change” value amounted to 0.947 (10 µM) and 1.14 (50 µM).

On to “ECH1_Q13011_159+171_CPKPVIAAVHGGCIGGGVDLVTACDIR (UniProt Q13011)”, for which the “probe-labelled cysteine peptide fold change” value by setting is: (10 µM) 0.0633; (50 µM) -0.106.

For “EHMT1_Q9H9B1_58_QAGEAHMAADGETNGSCENSDASSHANAAK (UniProt Q9H9B1)”, the “probe-labelled cysteine peptide fold change” value is -0.0747 (10 µM) and -0.229 (50 µM).

On to “EIF2B1_Q14232_218_IGTNQMAVCAK (UniProt Q14232)”, for which the “probe-labelled cysteine peptide fold change” value was -0.0309 (10 µM) and -0.136 (50 µM).

Regarding “EIF2B5_Q13144_618_YCALLLPLLK (UniProt Q13144)”, the “probe-labelled cysteine peptide fold change” value (10 µM) is 0.115 and the “probe-labelled cysteine peptide fold change” value (50 µM) was found to be 0.471.

Consider “EEF2_P13639_369_CELLYEGPPDDEAAMGIK (UniProt P13639)”, for which the “probe-labelled cysteine peptide fold change” value was -0.0902 (10 µM) and -0.139 (50 µM).

Turning to “ECI1_P42126_114_GVILTSDRPGVFSAGLDLTEMCGR (UniProt P42126)”, the “probe-labelled cysteine peptide fold change” value reads like this: (10 µM) -0.0308; (50 µM) -0.0841.

Turning to “EGLN1_Q9GZT9_201_LALEYIVPCMNK (UniProt Q9GZT9)”, the “probe-labelled cysteine peptide fold change” value is 0.0588 (10 µM) and -0.0709 (50 µM).

On to “EHMT2_Q96KQ7_842_CDLHAVNYHGDTPLHIAAR (UniProt Q96KQ7)”, for which the “probe-labelled cysteine peptide fold change” value amounted to 0.104 (10 µM) and 0.111 (50 µM).

Consider “EIF2S2_P20042_305_LYFLQCETCHSR (UniProt P20042)”, for which the “probe-labelled cysteine peptide fold change” value is, setting by setting: (10 µM) -0.0423; (50 µM) 0.162.

“EIF2S1_P05198_70_IGRNECVVVIR (UniProt P05198)”: the “probe-labelled cysteine peptide fold change” value runs as follows: (10 µM) -0.126; (50 µM) 0.103.

On to “EED_O75530_254_IMSCGMDHSLK (UniProt O75530)”, for which the “probe-labelled cysteine peptide fold change” value was -0.0331 (10 µM) and -0.17 (50 µM).

Regarding “EDEM1_Q92611_629_VINSSSNCNR (UniProt Q92611)”, the “probe-labelled cysteine peptide fold change” value was 0.0336 (10 µM) and 0.0444 (50 µM).

For the target “EEFSEC_P57772_289_LGICVTQFDPK (UniProt P57772)”, the “probe-labelled cysteine peptide fold change” value was 0.0684 (10 µM) and 0.133 (50 µM).

“EDC4_Q6P2E9_976_LCTQLEGLQSTVTGHVER (UniProt Q6P2E9)”: the “probe-labelled cysteine peptide fold change” value (10 µM) was -0.0914 and the “probe-labelled cysteine peptide fold change” value (50 µM) came out at 0.0799.

Turning to “EED_O75530_324_SCENAIVCWKPGK (UniProt O75530)”, the “probe-labelled cysteine peptide fold change” value is 0.00407 (10 µM) and -0.0285 (50 µM).

In the case of “EHMT2_Q96KQ7_985_NITHLQHCTCVDDCSSSNCLCGQLSIR (UniProt Q96KQ7)”, the “probe-labelled cysteine peptide fold change” value runs as follows: (10 µM) -0.14; (50 µM) -0.237.

“EHMT2_Q96KQ7_946_GYENVPIPCVNGVDGEPCPEDYK (UniProt Q96KQ7)”: the “probe-labelled cysteine peptide fold change” value (10 µM) is -0.0581 and the “probe-labelled cysteine peptide fold change” value (50 µM) amounted to 0.284.

Regarding “EHMT1_Q9H9B1_954_YDCVVLFLSR (UniProt Q9H9B1)”, the “probe-labelled cysteine peptide fold change” value reads like this: (10 µM) 0.29; (50 µM) 0.439.

“EHMT2_Q96KQ7_866_ESYHDCVLLFLSR (UniProt Q96KQ7)”: the “probe-labelled cysteine peptide fold change” value reads like this: (10 µM) 0.116; (50 µM) -0.0273.

Consider “EDC4_Q6P2E9_838_ETCSTLAESPR (UniProt Q6P2E9)”, for which the “probe-labelled cysteine peptide fold change” value (10 µM) is -0.0668 and the “probe-labelled cysteine peptide fold change” value (50 µM) was -0.146.

For “EFTUD2_Q15029_674_CFAETPNK (UniProt Q15029)”, the “probe-labelled cysteine peptide fold change” value (10 µM) came out at 0.0899 and the “probe-labelled cysteine peptide fold change” value (50 µM) was -0.00194.

“EEF2_P13639_651_IWCFGPDGTGPNILTDITK (UniProt P13639)”: the “probe-labelled cysteine peptide fold change” value runs as follows: (10 µM) 0.041; (50 µM) 5.9e-07.

In the case of “EDC3_Q96F86_341_NVHQRPTVALLCGPHVK (UniProt Q96F86)”, the “probe-labelled cysteine peptide fold change” value (10 µM) was 0.0922 and the “probe-labelled cysteine peptide fold change” value (50 µM) was found to be 0.0282.

Take “EEF1A1_P68104_234_DGNASGTTLLEALDCILPPTRPTDKPLR (UniProt P68104)”: the “probe-labelled cysteine peptide fold change” value (10 µM) was -0.206 and the “probe-labelled cysteine peptide fold change” value (50 µM) is -0.265.

Take “EDC3_Q96F86_477_IYLCDIGIPQQVFQEVGINYHSPFGCK (UniProt Q96F86)”: the “probe-labelled cysteine peptide fold change” value by setting is: (10 µM) 0.0526; (50 µM) 0.0231.

Regarding “EHD4_Q9H223_141_FMCSQLPNQVLK (UniProt Q9H223)”, the “probe-labelled cysteine peptide fold change” value (10 µM) is -0.048 and the “probe-labelled cysteine peptide fold change” value (50 µM) was -0.00282.

Turning to “EIF3A_Q14152_198_KLCDNLR (UniProt Q14152)”, the “probe-labelled cysteine peptide fold change” value runs as follows: (10 µM) -0.0142; (50 µM) -0.0594.
